{"source": "paper PMC7819943", "about": "“Rice protein-binding microarrays: a tool to detect cis-acting elements near promoter regions in rice”", "note": "The other results are listed elsewhere or left out."}
{"biological_target": "T1, OsSMF1 (Oryza sativa, UniProt Q6ZLB0 1-436)", "T1 sequence": "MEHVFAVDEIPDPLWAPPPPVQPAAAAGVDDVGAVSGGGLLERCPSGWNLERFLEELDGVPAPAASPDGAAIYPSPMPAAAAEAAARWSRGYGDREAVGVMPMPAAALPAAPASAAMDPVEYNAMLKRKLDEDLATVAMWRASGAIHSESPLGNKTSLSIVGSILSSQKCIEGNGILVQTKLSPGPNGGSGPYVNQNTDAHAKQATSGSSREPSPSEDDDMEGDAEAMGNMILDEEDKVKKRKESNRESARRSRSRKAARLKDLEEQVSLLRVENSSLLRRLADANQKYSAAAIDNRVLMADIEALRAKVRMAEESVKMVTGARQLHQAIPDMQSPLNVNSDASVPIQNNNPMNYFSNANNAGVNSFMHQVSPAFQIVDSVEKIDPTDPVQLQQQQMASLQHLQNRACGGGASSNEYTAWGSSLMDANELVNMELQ", "experiment": "protein-binding microarray (RPBM); PBS, 2% BSA, 51.3 ng/ul salmon testes DNA, 50 uM zinc acetate, 200 nM TF, 25 C, 1 h; high values mean tight binding", "conditions": "protein: recombinant; tags: N-terminal polyhistidine and DsRed monomer fusion (pET32a); chain copies: 2; label: CyDye5-dUTP incorporated in the synthesized complementary strand; 3' TTTTT single-stranded linker to array surface; dsDNA, one strand shown", "method_in_brief": "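The binding signal is fluorescence intensity per feature, in arbitrary units, read on an Axon 4000B scanner. Polyhistidine- and DsRed-tagged transcription factors (N-terminal fusions) from E. coli BL21-CodonPlus were purified on Ni–NTA and applied at 200 nM for 1 h at 25 °C to a double-stranded, BSA-blocked custom Agilent array in buffer with 50 µM zinc acetate.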"}
{"sequence": "GATCAATCATCCTTGTTCACAAGGCTGCCTGACATGGATGCGGAGTCACCTAGTGCAG", "binding signal": "3730 fluorescence intensity (a.u.)"}
{"sequence": "CCTCCTCCTGCCTGCCACTTGGGGCGCAGTTGCTGCTCCTCGGAGTCACCTAGTGCAG", "binding signal": "32400 fluorescence intensity (a.u.)"}
{"sequence": "CACAGCCTTAATGGACACACACGCTTACTCATCTAAACGTCGGAGTCACCTAGTGCAG", "binding signal": "3570 fluorescence intensity (a.u.)"}
{"sequence": "ACGATGCCACGGCCGCGCGCCACCGTCCTCCACGTCGTCGCGGAGTCACCTAGTGCAG", "binding signal": "10200 fluorescence intensity (a.u.)"}
{"sequence": "AGCCTAGCCTGAGATCTCCGGGCTCCGGAGGATGGCCCAGCGGAGTCACCTAGTGCAG", "binding signal": "3450 fluorescence intensity (a.u.)"}
{"sequence": "AAACGCGGCTAGTCGTTCGAGTCTGTGTACGTGGCACTGTCGGAGTCACCTAGTGCAG", "binding signal": "12000 fluorescence intensity (a.u.)"}
{"sequence": "AGACTGCTAGTCTGCTACTGCTCAGTCATCATCGTTTCAGCGGAGTCACCTAGTGCAG", "binding signal": "5250 fluorescence intensity (a.u.)"}
{"sequence": "CGCTAAAGCCACGTCACGTCACCCTCTCCGTCGTCCAGGCCGGAGTCACCTAGTGCAG", "binding signal": "30700 fluorescence intensity (a.u.)"}
{"sequence": "GCATATATGTGGCATGCCACGTAGGATTTCGGAGAGGTCGCGGAGTCACCTAGTGCAG", "binding signal": "16000 fluorescence intensity (a.u.)"}
{"sequence": "GTTAGTTGGCTGCGGCCATCGCAATTAGCCAAATGGTCGTCGGAGTCACCTAGTGCAG", "binding signal": "5130 fluorescence intensity (a.u.)"}
{"sequence": "TATTTGAGAAAGTAGCTTATGACATGGCAAGATGATGCAACGGAGTCACCTAGTGCAG", "binding signal": "5560 fluorescence intensity (a.u.)"}
{"sequence": "CAATATACCTAGAAAGAAATACAAATTGATTTAAGAAATGCGGAGTCACCTAGTGCAG", "binding signal": "29500 fluorescence intensity (a.u.)"}
{"sequence": "AGAGCTGTTATTATTGCGTGACGAGGCATATTCTAGACCTCGGAGTCACCTAGTGCAG", "binding signal": "6790 fluorescence intensity (a.u.)"}
{"sequence": "TGATAATGCAGTAGTAAGTCCAAATCACATGCATGGGCCACGGAGTCACCTAGTGCAG", "binding signal": "18300 fluorescence intensity (a.u.)"}
{"sequence": "ACTAATCGCACTATACTGTACGTCACAACATTGTATCAATCGGAGTCACCTAGTGCAG", "binding signal": "3400 fluorescence intensity (a.u.)"}
{"sequence": "CCGCTCCTCCGCCTCCATTTCCACGACTGCTTCGTCAGGGCGGAGTCACCTAGTGCAG", "binding signal": "4950 fluorescence intensity (a.u.)"}
{"sequence": "CCCTACTTAAGCATGAAAAGTAAGCTTACGATCTGAGCCGCGGAGTCACCTAGTGCAG", "binding signal": "3860 fluorescence intensity (a.u.)"}
{"sequence": "TGTTAGCTGATTAGGATGCCACGTCAGCTAAACCAGCTATCGGAGTCACCTAGTGCAG", "binding signal": "23700 fluorescence intensity (a.u.)"}
{"sequence": "AAATGAAATTCGGAGGCACAATCATCAATTGTCATTGACTCGGAGTCACCTAGTGCAG", "binding signal": "3720 fluorescence intensity (a.u.)"}
{"sequence": "TCCGGTGATCTCCGCGTGTCAGCATTCAGCAACACAGCGACGGAGTCACCTAGTGCAG", "binding signal": "5630 fluorescence intensity (a.u.)"}
{"sequence": "ATAAAATTGCCACGTAAGTAATTTTATCAGACTAACCAACCGGAGTCACCTAGTGCAG", "binding signal": "19200 fluorescence intensity (a.u.)"}
{"sequence": "GGATCAAATTGCCACGTAAGCGCCCACATCGGTGCCATGTCGGAGTCACCTAGTGCAG", "binding signal": "31700 fluorescence intensity (a.u.)"}
{"sequence": "TTTACATGTTCTTGATGACTCTGGCGTTTCCTGCTTTCGACGGAGTCACCTAGTGCAG", "binding signal": "3920 fluorescence intensity (a.u.)"}
